{"source": "paper PMC10864483", "about": "(Frontiers in Microbiology, 2024)", "test": "general procedure: Fmoc solid-phase peptide synthesis; Fmoc-Asp(Wang resin LL)-ODmab; HATU/HOAt/collidine (1:1:2); on-resin cyclization with DIC/HOAt, then PyBOP/HOAt", "conditions": "whole synthesis, resin loading and HPLC peak areas"}
{"substance": "cyc(Asp-(Orn(Ac,OH))3-Gly-Lys(N3))", "values": [{"measurement": "isolated yield", "result": 3, "unit": "%"}]}
